Library screening results

The values are deposited in ChEMBL (CHEMBL3988442, “University of Dundee, Small-Polar-MMV Screening Library” (2021)).

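Viability assay of Plasmodium falciparum sporozoites; the read-out is not stated. The concentration is filed as 10 mM, unlikely as a test dose, so the dose is not known. Higher reads as lower viability (inferred: compounds with an IC50 in retests scored well above the rest). Strong results were mostly tested again. Of about 34,000 compounds tested this way, about 280 (0.84%) reached 50% or more in at least one test.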

Values are the deposited “Percent Effect”, in %.
The controls that fix the scale are not given in the record; negative values are as filed.
This is an unselected part of the compounds tested.
Two or more numbers in one place are separate tests of the same structure; such repeats can differ widely.

structure	effect
O=C(O)C(F)(F)F.[H][C@@]12CCN(Cc3scnc3C)C[C@]1(C(=O)NC)CCO2	-5.922
O=C(NCC(F)(F)F)C1CCC(=O)N(C2CCCC2)C1 (stereo unspecified)	1.775
CC(C)c1cnc(CN(C)C2CCN(CCn3cc(C#N)cn3)C2)o1 (stereo unspecified)	8.849
Cc1cccc(C(=O)N2CCN(S(C)(=O)=O)[C@@H](C)C2)c1C	-4.604
CCNC(=O)[C@@H]1C[C@@H](NC(=O)c2cccnc2O)CN1Cc1ccsc1	-1.767
COCc1noc(-c2ccc(N3CCCCC3CO)nc2)n1 (stereo unspecified)	100.3 & 99.37 & 102
Cc1nc(C)n(CC2CCCN2Cc2nc(C3CC3)no2)n1 (stereo unspecified)	-15.81 & -7.914 & -23.43
Cc1nc(C)n(CC2CCCN2Cc2ccccn2)n1 (stereo unspecified)	-0.223
Cc1ccc(N2N=C(C(=O)O)S(=O)(=O)c3cccnc32)cc1	3.938
CCN(CC)C(=O)CN1CCC2(C=Cc3cc(Cl)c(C)cc3O2)CC1	20.61
COCC1CN(CC2CC2)Cc2nn(C)cc21.O=C(O)C(F)(F)F (stereo unspecified)	-2.349
Cc1ccccc1N1CCCN(C(=O)CCc2nncn2C)CC1	2.509
Cc1ccccc1OCCCNC(=O)C1(C)CC(=O)N2C=CC=CC2=N1 (stereo unspecified)	2.79
O=C(O)C(F)(F)F.[H][C@@]12CCN(Cc3nccs3)[C@]1([H])CC[C@H](C(=O)N1CCOCC1)O2	17.51
O=C(Cn1cc(I)cn1)Nc1cccnc1	-17.02 & -22.72 & -19.3
Cn1cnc2cc(C(=O)NS(=O)(=O)c3ccc(F)cc3)ccc21	-11.01
Cn1c(Nc2cn[nH]c2)c(C#N)c(=O)n(C)c1=O	1.153
Cc1csc(C(Cc2ccsc2)NC(=O)Cn2cccnc2=O)n1 (stereo unspecified)	3.86
Cc1ccc(-c2nc(CN3CCC(N4CCNC4=O)CC3)co2)cc1	-2.037
CC(C)c1nccn1C1CCCN(C(=O)CN(C)C2CC2)C1 (stereo unspecified)	-8.169
Cc1ccc(CN2CCC3(CCC(=O)N3CC(=O)N(C)C)CC2)s1.O=C(O)C(F)(F)F	3.069
Cc1nnc(C(C)NCC2(c3ccc(Cl)cc3)CCCC2)o1 (stereo unspecified)	-1.765
Cl.c1cncc(CNc2cncc(C3CCCN3)n2)c1 (stereo unspecified)	10.91
O=C(N[C@@H]1CN(Cc2cccc3[nH]ccc23)C[C@H]1O)c1cscn1	-9.54
Cc1ccc(CN2CCC3(CC2)CN(C(=O)c2cnccn2)CCO3)o1.O=C(O)C(F)(F)F	-9.776 & 30.69 & -15.25
O=C(c1cscn1)N1CCc2[nH]nc(Nc3ccccc3)c2C1	1.861
Cc1nc(CN2CCCC2c2noc(C3CC3)n2)nc2ccccc12 (stereo unspecified)	3.853 & 14.21 & -0.4101
Cc1ccc2c(n1)N(CCn1cccn1)CCN(C(=O)NC(C)C)C2	-0.9649
CC(C)OCC(=O)Nc1ccc(Oc2ccc3c(c2)OCO3)nc1	-5.586
COc1ccc(S(=O)(=O)NCC(N)c2ccccc2)c(C)c1.Cl (stereo unspecified)	20.89
CC(C)N(Cc1cccc(Cl)c1)Cc1nc2c(cnn2C)c(=O)[nH]1	-4.32
COc1cccc(S(=O)(=O)NC(=O)COc2c(C)cccc2C)c1	5.233
COCc1cc(NCCc2ccc(F)cc2)n2nccc2n1	-11.92
Cc1cc(C(=O)N2CCCC(C)C2)ccc1NCC(=O)N1CCOCC1 (stereo unspecified)	6.444
Cc1ccc(O)c(CN(CCCn2ccnc2)Cc2ccc(C)s2)c1.O=C(O)CC(O)(CC(=O)O)C(=O)O	-9.769
CCn1cc(NC(=O)C2CCN(Cc3noc(C(C)C)n3)CC2)cn1	-7.399
CSc1cccc(CN(C)C(=O)Cn2ncc(N3CCCC3)cc2=O)c1	-6.308
Cc1ccoc1C(=O)N1CCCC(CNS(C)(=O)=O)C1 (stereo unspecified)	3.155
CN(C)CCNC(=O)c1ccccc1NC(=O)c1cc(Cl)ccc1Cl	-9.432
CN(C(=O)c1cccc(OCC(F)F)n1)c1ccc2c(c1)CCO2	-0.1112
CCCc1nc(N2CCN(Cc3ccccn3)CC2)c2cnn(C)c2n1	-9.692
COc1cccc(N2CCN(Cc3ncc[nH]3)CC2=O)c1	1.568
CNS(=O)(=O)c1cccc(C(C)NCc2ccccc2)c1 (stereo unspecified)	-2.255
COc1cc2nc3n(c(=O)c2cc1OC)CCN(C(=O)C1CCC1)CC3	-2.008
CCCC(=O)N1CCC(c2cc3n(n2)[C@@H](C(F)(F)F)C[C@@H](C)N3)CC1	3.039
CC(C)c1nnc2n1CCN(C(=O)c1cccc(S(C)(=O)=O)c1)C2	11.43
Cc1cc(C2CCCN(S(=O)(=O)c3cn(C)cn3)C2)ccn1 (stereo unspecified)	7.685
O[C@H]1[C@H](n2cc(-c3ccccc3)nn2)c2ccccc2C12CCNCC2	0.6719
O=C(c1cnccn1)N1CCCC(Cc2cncc3ccccc23)C1 (stereo unspecified)	1.589
Cc1c[nH]c(CN(C)C(=O)c2cccc(CCC(C)(C)O)c2)n1	-3.863
O=C(Cc1csc(-c2ccco2)n1)N1CCCC1Cn1cccn1 (stereo unspecified)	-249.9
O=C(CCc1nccs1)N1CCN(c2ncccn2)CC1	-9.942
CCS(=O)(=O)N1CCN(Cc2ccncc2)c2nc(C)ccc2C1.O=C(O)C(F)(F)F.O=C(O)C(F)(F)F	-14.39

For reference, 5 entries once more:

Cc1cccc(C(=O)N2CCN(S(C)(=O)=O)[C@@H](C)C2)c1C gave -4.604%.
O=C(Cn1cc(I)cn1)Nc1cccnc1 gave -17.02% & -22.72% & -19.3%.
Cn1c(Nc2cn[nH]c2)c(C#N)c(=O)n(C)c1=O gave 1.153%.
COCC1CN(CC2CC2)Cc2nn(C)cc21.O=C(O)C(F)(F)F (stereo unspecified) gave -2.349%.
CSc1cccc(CN(C)C(=O)Cn2ncc(N3CCCC3)cc2=O)c1 gave -6.308%.